{"source": "PubChem BioAssay AID504804 (Drosophila RNAi Screening Center, 2011)", "purpose": "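Knock-downs shielding fly cells from apoptosis caused by DNA damage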 (primary screen)", "system": "Drosophila Kc cells", "knock-down reagent": "long dsRNA against Drosophila genes, 0.5 µg dsRNA per well", "timing": "96 h (48 h knock-down, then 48 h drug)", "challenge": "doxorubicin 5 µg/ml for 48 h, added 48 h after dsRNA", "measurement": "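Luminescent ATP counts per replicate, not normalised, reflecting viable cells after 48 h dsRNA knock-down followed by 48 h of 5 µg/ml doxorubicin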", "reading the numbers": "raw ATP luminescence: higher = more viable cells, protection from doxorubicin", "hit rule": "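Active when both duplicate wells lie at least 2 SD above the plate mean and protection is confirmed by rescreening and independent dsRNAs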", "note": "The screen tested about 19,000 reagents; shown is an unselected part of those that have a named target and a result. Over the whole deposit, 47 (0.25%) got an active call. 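Signals are raw, not normalised; exact z-scores behind calls not deposited; actives needed confirmation, so some wells reaching 2 SD are inactive.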"}
The first 2 entries as a preview:
{"Target gene":"sau","dsRNA":"DRSC00694","raw ATP luminescence, replicate 1":1.12e5,"raw ATP luminescence, replicate 2":1.08e5,"Call":"inactive"}
{"Target gene":"CG14006","dsRNA":"DRSC02338","raw ATP luminescence, replicate 1":45683,"raw ATP luminescence, replicate 2":40390,"Call":"inactive"}

Results, repeating the preview:
{"Target gene":"sau","dsRNA":"DRSC00694","raw ATP luminescence, replicate 1":1.12e5,"raw ATP luminescence, replicate 2":1.08e5,"Call":"inactive"}
{"Target gene":"CG14006","dsRNA":"DRSC02338","raw ATP luminescence, replicate 1":45683,"raw ATP luminescence, replicate 2":40390,"Call":"inactive"}
{"Target gene":"nebu","dsRNA":"DRSC09807","raw ATP luminescence, replicate 1":45097,"raw ATP luminescence, replicate 2":39013,"Call":"inactive"}
{"Target gene":"nebu","dsRNA":"DRSC09808","raw ATP luminescence, replicate 1":68703,"raw ATP luminescence, replicate 2":62720,"Call":"inactive"}
{"Target gene":"Bili","dsRNA":"DRSC14405","raw ATP luminescence, replicate 1":34930,"raw ATP luminescence, replicate 2":33573,"Call":"inactive"}
{"Target gene":"CG34269","dsRNA":"DRSC07884","raw ATP luminescence, replicate 1":1.91e5,"raw ATP luminescence, replicate 2":34843,"Call":"inactive"}
{"Target gene":"CG14062","dsRNA":"DRSC14725","raw ATP luminescence, replicate 1":66040,"raw ATP luminescence, replicate 2":45920,"Call":"inactive"}
{"Target gene":"CG10333","dsRNA":"DRSC02036","raw ATP luminescence, replicate 1":79777,"raw ATP luminescence, replicate 2":55130,"Call":"inactive"}
{"Target gene":"CG32388","dsRNA":"DRSC08861","raw ATP luminescence, replicate 1":1.60e5,"raw ATP luminescence, replicate 2":1.72e5,"Call":"inactive"}
{"Target gene":"CG5910","dsRNA":"DRSC11786","raw ATP luminescence, replicate 1":61873,"raw ATP luminescence, replicate 2":52830,"Call":"inactive"}
{"Target gene":"Osi7","dsRNA":"DRSC12176","raw ATP luminescence, replicate 1":44830,"raw ATP luminescence, replicate 2":59117,"Call":"inactive"}
{"Target gene":"ppk18","dsRNA":"DRSC02216","raw ATP luminescence, replicate 1":40317,"raw ATP luminescence, replicate 2":89120,"Call":"inactive"}
